Values of other authors as cited in US20090118211A1, “Compositions and Methods for Enhancement of Sexual Function” (priority 2005, published 2009).
Read-outs that look alike come from different tables or passages of the source. For some of these results: The name of at least one read-out is uncertain. For some of these results: For at least one compound, name, drawing or mass did not settle the structure.

What was measured:
erectile dysfunction = conditions: cited from earlier work; for highest success rate reported, percents of subjects attaining normal erectile function at study end point: monotherapy, 10 mg dosage unit
[1] = oral administration; as early as; cited from earlier work

For `CN1CC(=O)N2[C@H](c3ccc4c(c3)OCO4)c3[nH]c4ccccc4c3C[C@@H]2C1=O` [tadalafil], the “highest success rate reported, percents of subjects attaining normal erectile function at study end point” value (shortened to “highest success rate reported, percents”) (erectile dysfunction; mild ED) is given as 51.8%, the “highest success rate reported, percents” value (erectile dysfunction; moderate ED) is given as 41% and the “highest success rate reported, percents” value (erectile dysfunction; severe ED) is given as 25%. For the same molecule, the “subjects studied found to respond well” value (erectile dysfunction; oral administration of 20 mg) was 81% and the “patients able to have sexual intercourse with a satisfactory erection” value (erectile dysfunction; tadalafil, dose not stated) was “about 79%”.
In the case of `CCCc1nc(C)c2c(=O)[nH]c(-c3cc(S(=O)(=O)N4CCN(CC)CC4)ccc3OCC)nn12` [vardenafil], the “subjects who can have sexual intercourse with a satisfactory erection” value (erectile dysfunction; administered dose of 50-100 mg) is given as 82%, the “time after administration within which intercourse with satisfactory erection was possible” value (erectile dysfunction; administered dose of 50-100 mg) is given as 14 to 360 min and the “subjects who can have sexual intercourse with a satisfactory erection” value (erectile dysfunction; administrated dose of 20 mg) is given as “about 82%”. For the same molecule, the “time after administration within which intercourse with satisfactory erection was possible” value (erectile dysfunction; administrated dose of 20 mg) was 25 to 300 min and the “time at which Cmax is reached post-administration” value [1] was ≥ 15 min.
